Results from the supplement of paper PMC7666118.
Some of the results follow.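 How the source made its calls: active = dose-dependent thermal stabilisation significant by F-test of dose-response against flat model at 10% FDR; inactive = not significant.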

Protein sequences, listed by entry. Tags and fused reporters are not part of them. Lines headed by an entry give the natural chain unless they say otherwise; changes in a name come on top.
UniProt Q6ZN04: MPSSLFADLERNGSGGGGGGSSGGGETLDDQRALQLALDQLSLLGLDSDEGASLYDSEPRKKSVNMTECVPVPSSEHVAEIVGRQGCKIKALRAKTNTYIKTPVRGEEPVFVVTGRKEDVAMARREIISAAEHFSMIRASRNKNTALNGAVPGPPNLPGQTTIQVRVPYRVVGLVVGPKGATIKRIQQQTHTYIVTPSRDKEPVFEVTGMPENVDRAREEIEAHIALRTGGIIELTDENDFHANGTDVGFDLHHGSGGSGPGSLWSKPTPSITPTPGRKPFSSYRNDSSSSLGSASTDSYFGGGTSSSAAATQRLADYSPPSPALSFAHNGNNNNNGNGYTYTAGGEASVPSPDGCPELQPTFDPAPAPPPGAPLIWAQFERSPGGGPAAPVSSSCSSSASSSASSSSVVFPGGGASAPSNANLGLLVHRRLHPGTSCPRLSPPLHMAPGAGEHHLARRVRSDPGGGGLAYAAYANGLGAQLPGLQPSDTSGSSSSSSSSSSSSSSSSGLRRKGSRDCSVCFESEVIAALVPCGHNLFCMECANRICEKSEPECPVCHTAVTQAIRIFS
UniProt Q6ZRQ5: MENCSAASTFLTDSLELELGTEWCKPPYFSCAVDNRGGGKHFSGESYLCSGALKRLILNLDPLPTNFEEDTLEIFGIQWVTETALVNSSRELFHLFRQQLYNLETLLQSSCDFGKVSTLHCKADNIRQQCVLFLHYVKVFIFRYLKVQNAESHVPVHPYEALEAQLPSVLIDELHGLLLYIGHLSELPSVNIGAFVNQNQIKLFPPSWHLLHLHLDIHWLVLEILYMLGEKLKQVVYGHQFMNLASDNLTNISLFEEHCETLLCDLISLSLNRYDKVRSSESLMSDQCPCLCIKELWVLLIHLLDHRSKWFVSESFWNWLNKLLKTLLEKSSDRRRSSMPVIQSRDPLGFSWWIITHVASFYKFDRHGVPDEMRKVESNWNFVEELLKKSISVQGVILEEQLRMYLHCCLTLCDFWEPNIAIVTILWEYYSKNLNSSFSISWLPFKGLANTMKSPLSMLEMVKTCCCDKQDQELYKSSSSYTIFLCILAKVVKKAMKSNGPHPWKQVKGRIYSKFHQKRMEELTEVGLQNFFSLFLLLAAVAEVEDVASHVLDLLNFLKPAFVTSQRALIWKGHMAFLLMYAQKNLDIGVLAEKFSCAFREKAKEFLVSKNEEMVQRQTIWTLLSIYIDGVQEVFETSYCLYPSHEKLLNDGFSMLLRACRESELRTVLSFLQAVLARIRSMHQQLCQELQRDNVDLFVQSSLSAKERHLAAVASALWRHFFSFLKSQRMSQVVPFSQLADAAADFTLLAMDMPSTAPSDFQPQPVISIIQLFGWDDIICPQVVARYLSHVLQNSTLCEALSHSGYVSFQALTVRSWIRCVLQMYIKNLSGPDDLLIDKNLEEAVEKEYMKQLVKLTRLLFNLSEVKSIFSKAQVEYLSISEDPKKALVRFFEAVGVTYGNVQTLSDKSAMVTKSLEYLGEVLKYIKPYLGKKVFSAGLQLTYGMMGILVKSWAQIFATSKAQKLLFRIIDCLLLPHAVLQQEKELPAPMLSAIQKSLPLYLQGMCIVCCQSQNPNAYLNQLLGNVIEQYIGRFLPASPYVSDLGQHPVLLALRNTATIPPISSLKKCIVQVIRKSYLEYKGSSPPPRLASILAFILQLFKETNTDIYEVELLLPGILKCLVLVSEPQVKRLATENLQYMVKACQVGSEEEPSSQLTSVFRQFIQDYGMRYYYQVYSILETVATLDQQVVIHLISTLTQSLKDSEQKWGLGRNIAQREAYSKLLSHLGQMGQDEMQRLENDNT
UniProt O15021: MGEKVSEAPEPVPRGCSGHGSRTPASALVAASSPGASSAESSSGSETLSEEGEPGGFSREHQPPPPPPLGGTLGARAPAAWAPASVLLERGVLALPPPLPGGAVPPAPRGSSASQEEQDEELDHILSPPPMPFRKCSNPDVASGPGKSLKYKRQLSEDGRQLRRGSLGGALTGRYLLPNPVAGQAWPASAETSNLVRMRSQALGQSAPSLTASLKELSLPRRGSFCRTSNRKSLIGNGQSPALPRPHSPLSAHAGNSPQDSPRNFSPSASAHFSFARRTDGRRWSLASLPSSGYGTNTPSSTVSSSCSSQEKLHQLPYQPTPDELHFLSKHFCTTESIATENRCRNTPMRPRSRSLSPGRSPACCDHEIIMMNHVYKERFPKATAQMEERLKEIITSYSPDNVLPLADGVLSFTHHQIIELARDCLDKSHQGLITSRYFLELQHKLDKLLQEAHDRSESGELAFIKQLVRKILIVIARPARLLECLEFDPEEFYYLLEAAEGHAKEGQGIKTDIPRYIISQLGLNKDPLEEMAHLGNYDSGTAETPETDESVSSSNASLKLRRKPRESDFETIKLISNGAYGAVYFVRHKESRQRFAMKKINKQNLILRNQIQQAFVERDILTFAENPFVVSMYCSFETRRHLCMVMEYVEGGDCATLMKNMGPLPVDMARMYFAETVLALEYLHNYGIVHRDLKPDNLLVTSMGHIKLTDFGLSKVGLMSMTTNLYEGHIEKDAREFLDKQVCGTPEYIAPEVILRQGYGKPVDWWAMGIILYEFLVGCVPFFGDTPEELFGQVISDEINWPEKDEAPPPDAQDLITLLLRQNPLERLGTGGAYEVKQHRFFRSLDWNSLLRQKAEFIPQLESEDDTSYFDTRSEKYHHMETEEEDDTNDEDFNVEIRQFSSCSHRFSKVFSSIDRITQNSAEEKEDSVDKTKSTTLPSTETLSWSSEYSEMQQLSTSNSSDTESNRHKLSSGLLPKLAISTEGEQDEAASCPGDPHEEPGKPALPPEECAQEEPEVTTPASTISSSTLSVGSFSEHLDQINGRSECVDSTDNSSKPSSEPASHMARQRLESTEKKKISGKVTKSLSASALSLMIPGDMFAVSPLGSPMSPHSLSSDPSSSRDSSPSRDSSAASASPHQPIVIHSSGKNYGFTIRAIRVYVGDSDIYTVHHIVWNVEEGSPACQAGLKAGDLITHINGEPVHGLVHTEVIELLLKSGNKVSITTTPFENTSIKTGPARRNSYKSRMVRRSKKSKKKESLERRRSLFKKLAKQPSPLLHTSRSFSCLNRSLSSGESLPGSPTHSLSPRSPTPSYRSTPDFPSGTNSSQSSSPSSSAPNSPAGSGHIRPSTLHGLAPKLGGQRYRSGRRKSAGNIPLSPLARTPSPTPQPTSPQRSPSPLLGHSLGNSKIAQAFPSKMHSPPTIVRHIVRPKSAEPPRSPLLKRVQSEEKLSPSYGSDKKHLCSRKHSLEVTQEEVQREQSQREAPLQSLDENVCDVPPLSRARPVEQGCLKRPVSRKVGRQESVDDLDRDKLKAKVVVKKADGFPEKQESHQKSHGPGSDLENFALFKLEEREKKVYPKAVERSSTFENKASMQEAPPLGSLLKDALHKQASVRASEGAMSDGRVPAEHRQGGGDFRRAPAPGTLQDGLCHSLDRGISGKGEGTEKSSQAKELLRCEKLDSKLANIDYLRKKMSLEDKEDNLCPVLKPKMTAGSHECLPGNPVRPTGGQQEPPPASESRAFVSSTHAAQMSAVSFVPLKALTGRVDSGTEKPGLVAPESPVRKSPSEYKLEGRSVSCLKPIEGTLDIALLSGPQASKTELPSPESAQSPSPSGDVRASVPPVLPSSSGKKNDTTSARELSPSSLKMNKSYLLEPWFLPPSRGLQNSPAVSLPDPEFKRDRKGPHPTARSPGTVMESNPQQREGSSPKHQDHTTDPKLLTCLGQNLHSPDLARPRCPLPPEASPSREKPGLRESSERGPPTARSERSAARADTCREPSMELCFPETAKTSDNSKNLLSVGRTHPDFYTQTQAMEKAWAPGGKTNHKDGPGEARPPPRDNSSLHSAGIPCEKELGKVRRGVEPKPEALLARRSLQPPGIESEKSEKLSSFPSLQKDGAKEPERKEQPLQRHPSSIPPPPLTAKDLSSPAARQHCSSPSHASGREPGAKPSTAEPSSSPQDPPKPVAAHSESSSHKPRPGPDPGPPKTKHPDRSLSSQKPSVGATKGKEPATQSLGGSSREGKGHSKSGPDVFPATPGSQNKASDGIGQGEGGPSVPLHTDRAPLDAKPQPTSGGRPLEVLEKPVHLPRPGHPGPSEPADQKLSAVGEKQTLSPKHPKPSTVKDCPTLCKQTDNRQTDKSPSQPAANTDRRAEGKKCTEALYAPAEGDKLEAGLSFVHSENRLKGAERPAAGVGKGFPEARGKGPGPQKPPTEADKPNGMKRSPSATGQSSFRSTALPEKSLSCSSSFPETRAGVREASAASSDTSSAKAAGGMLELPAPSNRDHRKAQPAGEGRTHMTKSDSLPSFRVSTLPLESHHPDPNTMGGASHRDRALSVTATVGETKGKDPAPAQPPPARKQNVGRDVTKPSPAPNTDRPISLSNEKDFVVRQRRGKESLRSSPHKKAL
UniProt Q9BTE3: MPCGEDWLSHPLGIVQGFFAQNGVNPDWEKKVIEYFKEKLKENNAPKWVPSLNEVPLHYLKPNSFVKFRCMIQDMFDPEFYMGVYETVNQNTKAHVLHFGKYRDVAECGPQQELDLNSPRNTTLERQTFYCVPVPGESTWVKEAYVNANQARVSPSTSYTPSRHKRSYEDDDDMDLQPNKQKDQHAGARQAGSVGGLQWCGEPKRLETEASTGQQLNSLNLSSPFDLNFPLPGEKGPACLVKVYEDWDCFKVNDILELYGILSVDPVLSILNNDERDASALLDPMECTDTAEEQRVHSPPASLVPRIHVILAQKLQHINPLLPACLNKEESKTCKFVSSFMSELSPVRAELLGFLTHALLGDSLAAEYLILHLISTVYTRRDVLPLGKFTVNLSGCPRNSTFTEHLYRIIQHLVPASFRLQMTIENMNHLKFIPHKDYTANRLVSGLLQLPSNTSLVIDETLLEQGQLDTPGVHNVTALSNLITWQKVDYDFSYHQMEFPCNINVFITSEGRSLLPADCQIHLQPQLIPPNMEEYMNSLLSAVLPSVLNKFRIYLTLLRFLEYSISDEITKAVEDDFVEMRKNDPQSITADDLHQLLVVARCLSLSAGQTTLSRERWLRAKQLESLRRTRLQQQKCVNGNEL
UniProt P56192: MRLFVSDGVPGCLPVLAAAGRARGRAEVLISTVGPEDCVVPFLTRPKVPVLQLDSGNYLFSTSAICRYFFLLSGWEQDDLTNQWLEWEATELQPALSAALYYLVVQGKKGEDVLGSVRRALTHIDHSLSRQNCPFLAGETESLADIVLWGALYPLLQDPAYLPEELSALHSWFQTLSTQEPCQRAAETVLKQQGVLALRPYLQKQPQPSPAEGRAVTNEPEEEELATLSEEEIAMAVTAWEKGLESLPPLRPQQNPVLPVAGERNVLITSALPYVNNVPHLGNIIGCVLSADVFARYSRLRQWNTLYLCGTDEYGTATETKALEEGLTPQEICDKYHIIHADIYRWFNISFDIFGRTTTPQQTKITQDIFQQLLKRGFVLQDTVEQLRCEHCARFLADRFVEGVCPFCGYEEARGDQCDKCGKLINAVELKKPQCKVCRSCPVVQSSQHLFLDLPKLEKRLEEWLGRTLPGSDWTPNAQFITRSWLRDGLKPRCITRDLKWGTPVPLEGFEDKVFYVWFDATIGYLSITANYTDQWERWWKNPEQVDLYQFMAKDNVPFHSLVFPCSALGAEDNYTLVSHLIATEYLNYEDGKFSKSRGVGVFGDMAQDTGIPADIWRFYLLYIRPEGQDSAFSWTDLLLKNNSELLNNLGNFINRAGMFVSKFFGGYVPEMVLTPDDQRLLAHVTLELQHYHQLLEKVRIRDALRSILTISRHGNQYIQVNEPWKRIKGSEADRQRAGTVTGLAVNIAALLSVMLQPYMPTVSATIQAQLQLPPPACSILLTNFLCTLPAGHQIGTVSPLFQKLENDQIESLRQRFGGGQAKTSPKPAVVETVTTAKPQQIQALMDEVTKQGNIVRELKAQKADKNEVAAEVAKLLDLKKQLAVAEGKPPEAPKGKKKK
UniProt Q86U44, whole entry: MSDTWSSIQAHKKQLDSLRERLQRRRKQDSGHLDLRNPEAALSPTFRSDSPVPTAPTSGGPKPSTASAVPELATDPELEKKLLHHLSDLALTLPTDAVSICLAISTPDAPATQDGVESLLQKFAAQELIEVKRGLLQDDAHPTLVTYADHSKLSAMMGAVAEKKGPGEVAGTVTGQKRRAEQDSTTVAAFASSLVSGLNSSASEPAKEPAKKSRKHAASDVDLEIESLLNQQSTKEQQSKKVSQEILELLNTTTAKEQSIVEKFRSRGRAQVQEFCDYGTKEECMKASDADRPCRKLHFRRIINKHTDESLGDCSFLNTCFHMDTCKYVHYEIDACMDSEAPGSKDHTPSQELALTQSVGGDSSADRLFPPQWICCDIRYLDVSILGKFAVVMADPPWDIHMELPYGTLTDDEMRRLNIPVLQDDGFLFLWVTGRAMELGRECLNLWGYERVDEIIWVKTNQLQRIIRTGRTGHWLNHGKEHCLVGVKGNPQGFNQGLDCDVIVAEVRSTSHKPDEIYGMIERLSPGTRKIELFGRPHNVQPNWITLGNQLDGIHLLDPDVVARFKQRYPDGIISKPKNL

Compound: Nc1nc2c(ncn2[C@@H]2O[C@H](COP(=O)(O)OP(=O)(O)OP(=O)(O)O)[C@@H](O)[C@H]2O)c(=O)[nH]1
Assay: dose-dependent thermal stabilisation call (2D-TPP, DLPTP, 10% FDR) (binary (1 = stabilised)); higher = stabilised by the compound
Conditions: system: Jurkat gel-filtered lysate; concentration range 1-500 µM

Target | dose-dependent thermal stabilisation call
MYCBP (UniProt Q99417) | inactive: 0
MAPRE1 (UniProt Q15691) | inactive: 0
MRFAP1 (UniProt Q9Y605) | inactive: 0
LYSMD2 (UniProt Q8IV50) | inactive: 0
MECP2 (UniProt P51608) | inactive: 0
MKNK1 (UniProt Q9BUB5) | inactive: 0
MED28 (UniProt Q9H204) | inactive: 0
MEX3B (UniProt Q6ZN04) | inactive: 0
MCTS1 (UniProt Q9ULC4) | inactive: 0
MBD2 (UniProt Q9UBB5) | inactive: 0
MMS22L (UniProt Q6ZRQ5) | inactive: 0
LTA4H (UniProt P09960) | inactive: 0
MAEA (UniProt Q7L5Y9) | inactive: 0
MAPK9 (UniProt P45984) | inactive: 0
MAST4 (UniProt O15021) | inactive: 0
MTPN (UniProt P58546) | inactive: 0
MANF (UniProt P55145) | inactive: 0
MMAA (UniProt Q8IVH4) | active: 1

Two neighbouring records from above:
Target | dose-dependent thermal stabilisation call
MAPK9 (UniProt P45984) | inactive: 0
MAST4 (UniProt O15021) | inactive: 0

(list continues)

Target | dose-dependent thermal stabilisation call
MYOM2 (UniProt P54296) | inactive: 0
MCMBP (UniProt Q9BTE3) | active: 1
MEMO1 (UniProt Q9Y316) | inactive: 0
MIEN1 (UniProt Q9BRT3) | inactive: 0
MTHFD1L (UniProt Q6UB35) | inactive: 0
MAP1A (UniProt P78559) | inactive: 0
MARS (UniProt P56192) | inactive: 0
MPLKIP (UniProt Q8TAP9) | inactive: 0
METTL3 (UniProt Q86U44) | inactive: 0
LRPAP1 (UniProt P30533) | inactive: 0
MAPKAPK2 (UniProt P49137) | active: 1
MEPCE (UniProt Q7L2J0) | inactive: 0
MTMR12 (UniProt Q9C0I1) | inactive: 0
MYB (UniProt P10242) | inactive: 0
MED26 (UniProt O95402) | inactive: 0
MAT2B (UniProt Q9NZL9) | inactive: 0
MAP1S (UniProt Q66K74) | active: 1
MAP2K1 (UniProt Q02750) | active: 1
